Reference: paper PMC12451111

Biological target: T1, Flag-tagged LHPP (phospholysine phosphohistidine inorganic pyrophosphate phosphatase) (human) (UniProt Q9H008)
T1 sequence: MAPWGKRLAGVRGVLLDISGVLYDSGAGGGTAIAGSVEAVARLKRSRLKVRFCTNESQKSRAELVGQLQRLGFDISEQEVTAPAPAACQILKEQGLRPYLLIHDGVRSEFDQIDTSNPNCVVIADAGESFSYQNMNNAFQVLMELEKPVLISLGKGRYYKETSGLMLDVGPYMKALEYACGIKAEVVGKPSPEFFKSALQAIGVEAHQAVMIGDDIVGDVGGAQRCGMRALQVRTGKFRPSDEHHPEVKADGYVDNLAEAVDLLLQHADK
Test: affinity purification with mass spectrometry; immunoprecipitation with Flag-LHPP as bait protein in UM Mum2b cells, then mass spectrometry

B1: mitochondrial aconitate hydratase 2 (aconitase 2, ACO2) (enzyme, UniProt Q99798 28-780)
chain: QRAKVAMSHFEPNEYIHYDLLEKNINIVRKRLNRPLTLSEKIVYGHLDDPASQEIERGKSYLRLRPDRVAMQDATAQMAMLQFISSGLSKVAVPSTIHCDHLIEAQVGGEKDLRRAKDINQEVYNFLATAGAKYGVGFWKPGSGIIHQIILENYAYPGVLLIGTDSHTPNGGGLGGICIGVGGADAVDVMAGIPWELKCPKVIGVKLTGSLSGWSSPKDVILKVAGILTVKGGTGAIVEYHGPGVDSISCTGMATICNMGAEIGATTSVFPYNHRMKKYLSKTGREDIANLADEFKDHLVPDPGCHYDQLIEINLSELKPHINGPFTPDLAHPVAEVGKVAEKEGWPLDIRVGLIGSCTNSSYEDMGRSAAVAKQALAHGLKCKSQFTITPGSEQIRATIERDGYAQILRDLGGIVLANACGPCIGQWDRKDIKKGEKNTIVTSYNRNFTGRNDANPETHAFVTSPEIVTALAIAGTLKFNPETDYLTGTDGKKFRLEAPDADELPKGEFDPGQDTYQHPPKDSSGQHVDVSPTSQRLQLLEPFDKWDGKDLEDLQILIKVKGKCTTDHISAAGPWLKFRGHLDNISNNLLIGAINIENGKANSVRNAVTQEFGPVPDTARYYKKHGIRWVVIGDENYGEGSSREHAALEPRHLGGRAIITKSFARIHETNLKKQGLLPLTFADPADYNKIHPVDKLTIQGLKDFTPGKPLKCIIKHPNGTQETILLNHTFNETQIEWFRAGSALNRMKELQQ
binding: binds

Results are given in words; binding and its absence hold for the method and conditions named. In cells and extracts the contact can be indirect. These calls come from enrichment with a bait or labelling near it, and not all partners need be listed. Where a sequence is shown, tags or fusion partners need not be part of it.
